Some results were stated once for a whole list of compounds, not compound by compound.
Assays:
Plasmopara viticola = experiment: Plasmopara test (grapevines)/protective; assay type: in vivo; details: protective, 100 ppm active compound, evaluation 6 days after inoculation
Venturia inaequalis = experiment: Venturia test (apple)/protective; assay type: in vivo; details: protective, 100 ppm active compound, evaluation 12 days after inoculation

SMILES	efficacy (Plasmopara viticola)	efficacy (Venturia inaequalis)
CCc1ccc(C(C)NC(=O)c2cccc(NC=O)c2O)cc1 (centres unmarked) [Example 16]	over 90%	–
O=CNc1cccc(C(=O)Nc2ccc(-c3ccccc3)cc2)c1O [Example 2, 3-formamido-2-hydroxy-N-(4-phenylphenyl)-benzamide]	–	over 80%
